From PubChem BioAssay AID504834 (National Center for Advancing Translational Sciences (NCATS), 2011)
Screen size: about 320,000 compounds; about 22,000 (6.9%) were called active. Inconclusive results, whose numbers are uncertain, are shown with a selection of clear calls. Calls come from the whole dose curve; as a rule, active = well fitted inhibition curve with a large enough effect; inconclusive = small, poorly fitted or top-dose-only effect, or another doubt; inactive = no such curve, though single readings can be large or run the other way. Potencies of inconclusive entries are doubtful fits and often do not repeat.

Assay: Primary qHTS for delayed death inhibitors of the malarial parasite plastid, 96 hour incubation
Conditions: P. falciparum luciferase reporter growth; series mostly up to 28.7 µM; activity change, negative = inhibition: at the top concentration
Summary of the method: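 Delayed-death screen, second-generation endpoint: infected erythrocytes, 2% hematocrit, 0.05% parasitemia final; 96 hours at 37 C, 5% CO2; luciferase detection reagent; luminescence decrease equals reduced growth.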
% is set by controls: 0 for no effect and ±100 for the full control effect; potency is the fitted concentration of half-maximal effect.

| Structure (SMILES) | activity change, negative = inhibition | Potency |
| --- | --- | --- |
| O=C(Cn1nc(-c2ccccc2)nc1-c1ccccc1)OC1CCCCC1 | inactive: -20.5% |  |
| Cc1ccc(NC(=O)CSc2nc(C)c(C)c(C)n2)c([N+](=O)[O-])c1 | inactive: 10.5% |  |
| COCCNC(=S)N/N=C(\C)c1ccc(Cl)c(Cl)c1 |  | inconclusive: 16.5 µM [inhibitor, single point] |
| O=C(CC(=O)N1CCN(c2ccccn2)CC1)Nc1ccc2nc3n(c(=O)c2c1)CCCCC3 |  | inconclusive: 18.5 µM [inhibitor, single point] |
| CCc1nc2ccccc2n1CC1CC1(Cl)Cl (stereo not drawn) |  | inconclusive: 10.4 µM [inhibitor, single point] |
| COc1cc(-n2c(=S)[nH]c3ccccc3c2=O)c(Cl)cc1Cl | inactive: 13.1% |  |
| Cc1nn(C)cc1CN(C)Cc1c(C(=O)N(C)Cc2ccccc2)nc2ccccn12 |  | inconclusive: 9.28 µM [inhibitor, partial curve, poor fit] |
| CCOC(=O)Cn1c(CN2CCN(c3cccc(Cl)c3)CC2)nc2c1c(=O)[nH]c(=O)n2C |  | inconclusive: 14.7 µM [inhibitor, single point] |
| Cc1ccc(NC(=O)CS(=O)CC(=O)NC(C)CCc2ccco2)cc1Cl (stereo not drawn) |  | inconclusive: 18.5 µM [inhibitor, single point] |
| O=C(Cc1ccccc1Cl)Nc1cccnc1 |  | inconclusive: 0.0522 µM [inhibitor, partial curve, poor fit] |
| Cc1ccccc1CN(c1ccc(C(=O)NCCC2=CCCCC2)cc1)S(C)(=O)=O |  | inconclusive: 0.738 µM [inhibitor, full curve, poor fit] |
| O=C(CCc1nnc2ccc(NCc3ccccc3)nn12)NC1CCCCC1 |  | active: 11.7 µM |
| OC(COc1ccc2ccccc2c1)CN1CCN(c2ccc(F)cc2)CC1 (stereo not drawn) | inactive: -27.5% |  |
| COc1c(Br)cc(Br)cc1/C=N/NC(=O)c1cccnc1 |  | inconclusive: 9.28 µM [inhibitor, partial curve, poor fit] |
| CNC(=O)c1c(NC(NC(=O)c2ccco2)C(=O)c2ccc(Cl)cc2)sc2c1CCCC2 (stereo not drawn) |  | inconclusive: 18.5 µM [inhibitor, single point] |
| CC(C)C(=O)NC(c1ccc(N(C)C)cc1)c1c(O)ccc2ccccc12 (stereo not drawn) |  | inconclusive: 18.5 µM [inhibitor, single point] |
| S=C(NC1CCCC1)N1CCOCC1 | inactive: 30.8% |  |
| COc1ccc(N2CCN(S(=O)(=O)CC34CCC(CC3=O)C4(C)C)CC2)cc1 (stereo not drawn) |  | inconclusive: 2.94 µM [inhibitor, single point] |
| Cc1cc(N2CCN(S(=O)(=O)c3ccc(Cl)c(Cl)c3)CC2)c2ccccc2n1 | inactive: 1.12% |  |
| Cc1cc(C)c(S(=O)(=O)N2CCCC(C(=O)NCCC3=CCCCC3)C2)c(C)c1 (stereo not drawn) |  | inconclusive: 18.5 µM [inhibitor, single point] |
| Cc1ccc2c(c1)c1c3n2CCN(CC#N)C3CCC1 (stereo not drawn) |  | inconclusive: 8.28 µM [inhibitor, partial curve] |
| CCOC(=O)N1CCN(C(=O)CSCc2nc(-c3ccccc3C)oc2C)CC1 |  | inconclusive: 11.7 µM [inhibitor, single point] |
| Cc1csc(SC(C)C(=O)NCC2CCCCC2)n1 (stereo not drawn) |  | inconclusive: 2.08 µM [inhibitor, full curve, poor fit] |
| COCCCNC(=O)Nc1ccc(Br)cc1Cl |  | inconclusive: 18.5 µM [inhibitor, single point] |
| CC(C)(C)c1nc(CN2CCOCC2)ccc1O | inactive: -1.36% |  |

| Structure (SMILES) | activity change, negative = inhibition | Potency |
| --- | --- | --- |
| O=C(NC1CCCC1)C(c1ccccn1)N(C(=O)c1csnn1)c1ccccc1Cl (stereo not drawn) |  | inconclusive: 3.29 µM [inhibitor, partial curve] |
| Clc1cccc(OCCN2CCN(CCOc3cccc(Cl)c3)CC2)c1 |  | inconclusive: 18.5 µM [inhibitor, single point] |
| COc1ccccc1CNC(=O)c1oc2ccc(S(=O)(=O)N3CCCC3)cc2c1C | inactive: 209% |  |
| COc1ccc(CNc2ncc(-c3ccc(F)cc3)n2C)cc1OC |  | inconclusive: 11.7 µM [inhibitor, single point] |
| COc1ccccc1NC(=O)NCC(c1ccco1)N1CCCCC1 (stereo not drawn) |  | inconclusive: 9.28 µM [inhibitor, partial curve] |
| S=c1nc[nH]c2c1sc1nc(N3CCOCC3)c3c(c12)CCCC3 | inactive: 28.2% |  |
| CCn1ccnc1CN(C)Cc1c(C(=O)N2C[C@@H](C)O[C@@H](C)C2)nc2ccc(Cl)cn12 | inactive: -23.3% |  |
| O=C(Oc1ccc(=O)n(-c2ccccc2)n1)c1ccc(Cl)cc1 | inactive: 31% |  |
| CC(C)Oc1ccc(C(=O)NC(=S)N2CCOCC2)cc1 |  | inconclusive: 9.28 µM [inhibitor, single point] |
| O=C(CSCc1cnn(-c2ccccc2)c1-n1cccc1)NCCN1CCOCC1 |  | inconclusive: 0.0047 µM [inhibitor, full curve, poor fit] |
| Cc1nn(C)c(C)c1S(=O)(=O)NCc1cccs1 |  | inconclusive: 13.1 µM [inhibitor, partial curve, poor fit] |
| O=C(NCC(O)c1ccccc1)Nc1cccs1 (stereo not drawn) | inactive: 56.4% |  |
| CC(=O)Nc1ccc(NC(=O)C(C)OC(=O)c2cccc(S(=O)(=O)N3CCCCC3)c2)cc1 (stereo not drawn) |  | inconclusive: 9.28 µM [inhibitor, partial curve, poor fit] |
| OCCC1CN(Cc2cc3c(cc2Cl)OCO3)CCN1C1CCCCC1 (stereo not drawn) |  | inconclusive: 9.28 µM [inhibitor, single point] |
| COc1ccc(C(=O)COC(=O)CCc2nc3ccccc3[nH]c2=O)cc1Br | inactive: 4.59% |  |
| COc1ccc(/C=C/C(=O)NCCSCc2ccco2)cc1OC | inactive: -18.9% |  |
| CC1(C)Cc2c(cnn2-c2ccccc2)C(NC(=O)CCN2CCCC2=O)C1 (stereo not drawn) |  | active: 14.7 µM |
| COc1ccc(Cl)cc1NC(=O)CSc1nc(NS(=O)(=O)c2ccccc2)cc(=O)[nH]1 |  | active: 8.28 µM |
| COc1ccc2[nH]c(=O)c(CN(CCO)S(=O)(=O)c3ccc4c(c3)OCCO4)cc2c1 | inactive: -16.5% |  |
| Cc1ccc(NC(=O)CNC(=O)CC23CC4CC(CC(C4)C2)C3)c(O)c1 |  | inconclusive: 16.5 µM [inhibitor, single point] |
| CCOC(=O)C1(Cc2ccc(OC)cc2)CCN(C(=O)c2cccc3nccnc23)CC1 | inactive: -16% |  |
| CN(C)c1ccc(-c2nnn(Cc3ccccc3Br)n2)cc1 |  | inconclusive: 7.38 µM [inhibitor, partial curve, poor fit] |
| O=C(NCCN1CCOCC1)c1ccc([N+](=O)[O-])cc1[N+](=O)[O-] |  | inconclusive: 0.0329 µM [inhibitor, full curve, poor fit] |
| CCOC(=O)c1c(C)[nH]c(C(=O)COC(=O)COc2ccc(OC)cc2)c1C | inactive: 11.9% |  |
| Cc1nc2ccccc2c(=O)n1-c1cccc(NC(=O)c2cccs2)c1 |  | inconclusive: 18.5 µM [inhibitor, single point] |

Ordered by length of the SMILES (smallest number first): part of the list above

| Structure (SMILES) | activity change, negative = inhibition | Potency |
| --- | --- | --- |
| O=C(Oc1ccc(=O)n(-c2ccccc2)n1)c1ccc(Cl)cc1 | inactive: 31% |  |
| O=C(CSCc1cnn(-c2ccccc2)c1-n1cccc1)NCCN1CCOCC1 |  | inconclusive: 0.0047 µM [inhibitor, full curve, poor fit] |
| O=C(NC1CCCC1)C(c1ccccn1)N(C(=O)c1csnn1)c1ccccc1Cl (stereo not drawn) |  | inconclusive: 3.29 µM [inhibitor, partial curve] |
| CCOC(=O)c1c(C)[nH]c(C(=O)COC(=O)COc2ccc(OC)cc2)c1C | inactive: 11.9% |  |
| CC(=O)Nc1ccc(NC(=O)C(C)OC(=O)c2cccc(S(=O)(=O)N3CCCCC3)c2)cc1 (stereo not drawn) |  | inconclusive: 9.28 µM [inhibitor, partial curve, poor fit] |

(continued)

| Structure (SMILES) | activity change, negative = inhibition | Potency |
| --- | --- | --- |
| O=[n+]1cc(-c2cccc3ccccc23)n([O-])c2c1CCC2 | inactive: 0% |  |
| CCOC(=O)C1CCCN(C(=O)CNC(=O)c2nn(-c3ccc(OC)c(Cl)c3)c(=O)c3ccccc23)C1 (stereo not drawn) |  | inconclusive: 0.828 µM [inhibitor, full curve, poor fit] |
| Cc1cccc(NC(=O)c2ccccc2[N+](=O)[O-])n1 | inactive: 73.5% |  |
| COc1cccc(Cl)c1NC(=O)N1CCc2c([nH]c3ccccc23)C1C(F)(F)F (stereo not drawn) |  | inconclusive: 10.4 µM [inhibitor, single point] |
| CCc1ccc(NC(=O)CN(c2ccc(OC)cc2)S(=O)(=O)c2c(C)nn(C)c2C)cc1 | inactive: 3.72% |  |
| CCOC(=O)c1c(NC(=O)C(C)N2CCN(C(=O)c3ccco3)CC2)sc2c1CCCC2 (stereo not drawn) |  | inconclusive: 0.828 µM [inhibitor, full curve, poor fit] |
| Cc1ccc(NC(=O)c2onc(C)c2Cl)cc1 | inactive: -45.3% |  |
| COCCNC(=O)c1ccc(N2CCCCC2)c(NS(=O)(=O)c2ccc(C)cc2)c1 | inactive: 400% |  |
| O=C(Cc1cccc2ccccc12)NC(NC(=S)Nc1ccccc1Cl)C(Cl)(Cl)Cl (stereo not drawn) | inactive: 13.4% |  |
| Cc1nc2cc([N+](=O)[O-])ccc2c(=O)n1-c1ccccc1[N+](=O)[O-] | inactive: 2.87% |  |
| CCN(CC)CCCOc1ccc(C)cc1Br |  | inconclusive: 16.5 µM [inhibitor, single point] |
| O=C(c1ccco1)N1CCN(C(=O)c2snc3ccc(Cl)cc23)CC1 |  | inconclusive: 6.57 µM [inhibitor, partial curve, poor fit] |
| c1ccc(Nc2nc(NCC3CCCO3)c3ccccc3n2)cc1 (stereo not drawn) | inactive: 8.99% |  |
| COc1cc([N+](=O)[O-])ccc1NC(=O)CCCOc1cccc(C)c1 | inactive: 61.7% |  |
| CCN(CC)CCNC(=O)c1cc2c(=O)n(CC)c3ccccc3c2s1 |  | inconclusive: 6.57 µM [inhibitor, partial curve] |
| COc1ccc(C(=O)O/N=C(\N)c2cccc(C)c2)cc1OC |  | inconclusive: 5.22 µM [inhibitor, partial curve] |
| O=C(/C=C/c1cccnc1)c1cccc(O)c1 | inactive: -16% |  |
| CCOC(=O)c1c(NC(=O)C(F)(OC)C(F)(F)F)sc2c1CCN(C)C2 (stereo not drawn) |  | active: 10.4 µM |
| CC(OC(=O)c1ccc2c(=O)n3c(nc2c1)CCCCC3)C(=O)Nc1ncc(Cl)cc1Cl (stereo not drawn) | inactive: 27.8% |  |
| O=C(c1ccccc1Cl)N1CCn2c1nc1ccccc12 |  | inconclusive: 9.28 µM [inhibitor, partial curve] |
| Cc1ccccc1NC(=O)N1C2CCCC1CC(NC(=O)C1CC1)C2 (stereo not drawn) |  | active: 9.28 µM |
| CCN1CCN(c2nc(Nc3ccc(OC)cc3)nc(N)c2[N+](=O)[O-])CC1 |  | inconclusive: 18.5 µM [inhibitor, single point] |
| COc1ccc(CNC(=O)CN(c2ccc(OC)cc2)S(=O)(=O)c2c(C)[nH]c(=O)[nH]c2=O)cc1 |  | inconclusive: 18.5 µM [inhibitor, single point] |
